No constants are given. Whether binding was seen depends on the method and setting. Binding seen in cells or lysates may run through a third protein. A yes stands for co-enrichment or nearness to the bait. Other partners may have been found. A no says only that the protein was not detected with the bait.

The chains behind the UniProt entries cited, without tags or fusion partners.
UniProt P63015: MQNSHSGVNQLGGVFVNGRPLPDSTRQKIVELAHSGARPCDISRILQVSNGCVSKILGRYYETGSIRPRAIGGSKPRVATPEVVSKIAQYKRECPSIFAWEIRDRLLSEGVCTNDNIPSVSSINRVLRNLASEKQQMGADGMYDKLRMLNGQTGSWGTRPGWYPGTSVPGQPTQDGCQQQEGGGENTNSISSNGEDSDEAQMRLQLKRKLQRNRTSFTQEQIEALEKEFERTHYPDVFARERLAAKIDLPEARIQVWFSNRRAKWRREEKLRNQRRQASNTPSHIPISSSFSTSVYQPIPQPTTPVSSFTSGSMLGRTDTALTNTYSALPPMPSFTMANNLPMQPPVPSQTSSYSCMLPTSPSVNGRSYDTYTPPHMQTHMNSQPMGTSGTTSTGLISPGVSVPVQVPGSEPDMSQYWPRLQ
UniProt O88379: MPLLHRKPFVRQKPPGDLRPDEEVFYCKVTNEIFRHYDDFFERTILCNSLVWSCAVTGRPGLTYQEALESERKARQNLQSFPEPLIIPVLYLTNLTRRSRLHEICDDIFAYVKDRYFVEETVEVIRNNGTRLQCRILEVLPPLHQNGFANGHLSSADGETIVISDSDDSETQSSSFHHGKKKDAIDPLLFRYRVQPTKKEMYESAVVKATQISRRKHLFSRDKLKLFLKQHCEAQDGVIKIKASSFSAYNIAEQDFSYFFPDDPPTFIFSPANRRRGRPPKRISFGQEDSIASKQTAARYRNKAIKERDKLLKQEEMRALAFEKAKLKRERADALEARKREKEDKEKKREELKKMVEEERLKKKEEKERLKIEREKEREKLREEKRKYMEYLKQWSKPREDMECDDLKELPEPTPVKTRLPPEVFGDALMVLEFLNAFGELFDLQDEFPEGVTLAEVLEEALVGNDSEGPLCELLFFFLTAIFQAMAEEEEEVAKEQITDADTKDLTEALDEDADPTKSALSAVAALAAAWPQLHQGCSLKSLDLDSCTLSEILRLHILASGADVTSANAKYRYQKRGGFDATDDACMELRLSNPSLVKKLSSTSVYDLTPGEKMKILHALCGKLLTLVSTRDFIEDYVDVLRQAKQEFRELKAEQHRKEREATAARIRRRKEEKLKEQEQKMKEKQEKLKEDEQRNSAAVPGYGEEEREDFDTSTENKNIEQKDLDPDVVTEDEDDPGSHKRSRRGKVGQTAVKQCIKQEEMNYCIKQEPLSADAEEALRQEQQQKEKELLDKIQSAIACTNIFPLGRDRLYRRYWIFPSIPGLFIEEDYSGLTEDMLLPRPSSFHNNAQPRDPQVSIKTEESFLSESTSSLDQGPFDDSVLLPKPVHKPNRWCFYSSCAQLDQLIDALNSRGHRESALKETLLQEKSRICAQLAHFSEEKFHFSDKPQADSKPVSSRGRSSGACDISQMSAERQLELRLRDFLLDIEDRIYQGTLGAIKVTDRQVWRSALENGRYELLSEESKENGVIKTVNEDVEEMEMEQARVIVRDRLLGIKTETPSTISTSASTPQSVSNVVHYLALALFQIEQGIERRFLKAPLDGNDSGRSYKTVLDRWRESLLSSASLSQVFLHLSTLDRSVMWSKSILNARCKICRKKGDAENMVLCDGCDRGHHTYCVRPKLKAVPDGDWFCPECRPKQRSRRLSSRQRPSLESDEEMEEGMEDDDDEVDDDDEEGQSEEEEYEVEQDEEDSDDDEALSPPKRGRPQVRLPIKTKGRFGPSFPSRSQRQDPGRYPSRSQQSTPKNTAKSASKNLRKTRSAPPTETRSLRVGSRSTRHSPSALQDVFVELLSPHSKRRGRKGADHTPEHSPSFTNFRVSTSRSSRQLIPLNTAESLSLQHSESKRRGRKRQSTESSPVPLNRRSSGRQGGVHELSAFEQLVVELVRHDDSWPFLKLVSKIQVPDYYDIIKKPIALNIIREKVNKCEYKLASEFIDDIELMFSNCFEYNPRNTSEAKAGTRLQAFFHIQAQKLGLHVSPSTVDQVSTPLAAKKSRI
UniProt P45481: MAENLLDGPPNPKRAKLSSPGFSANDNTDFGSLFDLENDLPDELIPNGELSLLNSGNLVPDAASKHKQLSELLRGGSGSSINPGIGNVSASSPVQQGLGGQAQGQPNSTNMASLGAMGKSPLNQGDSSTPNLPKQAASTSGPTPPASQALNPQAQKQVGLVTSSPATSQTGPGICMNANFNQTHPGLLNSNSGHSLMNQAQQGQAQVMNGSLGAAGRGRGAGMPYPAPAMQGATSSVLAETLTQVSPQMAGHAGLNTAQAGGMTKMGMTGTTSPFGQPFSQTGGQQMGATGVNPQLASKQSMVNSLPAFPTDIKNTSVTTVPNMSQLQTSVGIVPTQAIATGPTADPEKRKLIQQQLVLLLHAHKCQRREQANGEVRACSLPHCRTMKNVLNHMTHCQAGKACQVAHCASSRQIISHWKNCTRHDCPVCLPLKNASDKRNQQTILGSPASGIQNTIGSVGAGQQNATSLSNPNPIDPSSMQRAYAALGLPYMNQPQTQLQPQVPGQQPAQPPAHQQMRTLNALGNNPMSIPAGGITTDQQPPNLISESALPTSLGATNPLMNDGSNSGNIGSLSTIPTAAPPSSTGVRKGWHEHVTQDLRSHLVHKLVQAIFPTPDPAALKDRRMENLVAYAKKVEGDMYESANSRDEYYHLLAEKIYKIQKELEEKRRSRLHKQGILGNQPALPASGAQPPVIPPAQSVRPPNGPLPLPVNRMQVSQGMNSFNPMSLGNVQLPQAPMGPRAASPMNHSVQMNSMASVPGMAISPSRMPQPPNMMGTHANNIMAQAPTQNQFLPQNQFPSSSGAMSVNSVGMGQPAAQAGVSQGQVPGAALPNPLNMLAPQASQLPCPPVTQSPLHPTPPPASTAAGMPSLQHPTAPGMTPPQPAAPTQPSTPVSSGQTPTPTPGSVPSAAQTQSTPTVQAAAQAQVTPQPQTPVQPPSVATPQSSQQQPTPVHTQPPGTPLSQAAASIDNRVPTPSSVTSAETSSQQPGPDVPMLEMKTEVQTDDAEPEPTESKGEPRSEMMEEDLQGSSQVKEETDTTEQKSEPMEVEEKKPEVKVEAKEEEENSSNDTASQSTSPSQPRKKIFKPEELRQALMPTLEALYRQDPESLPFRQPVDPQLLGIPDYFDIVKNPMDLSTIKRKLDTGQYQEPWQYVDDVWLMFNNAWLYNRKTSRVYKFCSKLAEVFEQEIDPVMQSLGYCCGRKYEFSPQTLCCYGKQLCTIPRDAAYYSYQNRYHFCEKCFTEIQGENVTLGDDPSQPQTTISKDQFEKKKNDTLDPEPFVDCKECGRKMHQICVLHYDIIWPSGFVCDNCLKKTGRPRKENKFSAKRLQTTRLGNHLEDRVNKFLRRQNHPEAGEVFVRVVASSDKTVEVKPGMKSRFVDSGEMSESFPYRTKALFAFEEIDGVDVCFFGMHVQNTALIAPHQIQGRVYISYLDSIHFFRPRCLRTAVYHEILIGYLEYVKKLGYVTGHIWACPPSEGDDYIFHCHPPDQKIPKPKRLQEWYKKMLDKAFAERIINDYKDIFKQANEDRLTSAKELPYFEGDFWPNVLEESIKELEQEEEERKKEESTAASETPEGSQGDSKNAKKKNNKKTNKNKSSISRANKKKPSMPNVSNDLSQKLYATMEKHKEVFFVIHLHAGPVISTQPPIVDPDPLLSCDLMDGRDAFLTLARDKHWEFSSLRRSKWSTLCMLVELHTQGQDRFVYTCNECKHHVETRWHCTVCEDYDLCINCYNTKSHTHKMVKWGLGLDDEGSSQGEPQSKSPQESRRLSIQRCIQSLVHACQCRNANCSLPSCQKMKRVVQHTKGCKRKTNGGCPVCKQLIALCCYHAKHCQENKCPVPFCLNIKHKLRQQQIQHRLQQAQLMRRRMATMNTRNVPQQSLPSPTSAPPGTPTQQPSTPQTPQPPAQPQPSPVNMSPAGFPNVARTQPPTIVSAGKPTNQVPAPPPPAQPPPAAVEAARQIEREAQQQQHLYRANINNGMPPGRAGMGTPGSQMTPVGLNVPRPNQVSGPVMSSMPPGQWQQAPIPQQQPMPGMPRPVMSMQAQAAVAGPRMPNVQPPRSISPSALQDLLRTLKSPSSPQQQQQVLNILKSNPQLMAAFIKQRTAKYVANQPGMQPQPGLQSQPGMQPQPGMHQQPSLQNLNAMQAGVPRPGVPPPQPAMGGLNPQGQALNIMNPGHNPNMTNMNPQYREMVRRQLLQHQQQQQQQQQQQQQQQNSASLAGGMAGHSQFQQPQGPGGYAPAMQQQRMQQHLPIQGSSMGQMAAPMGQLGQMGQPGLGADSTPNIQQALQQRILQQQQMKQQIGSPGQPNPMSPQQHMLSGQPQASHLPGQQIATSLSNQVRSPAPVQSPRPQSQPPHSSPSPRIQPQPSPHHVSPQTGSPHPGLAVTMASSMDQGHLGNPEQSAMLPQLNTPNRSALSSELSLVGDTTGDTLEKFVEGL
UniProt Q99LT0: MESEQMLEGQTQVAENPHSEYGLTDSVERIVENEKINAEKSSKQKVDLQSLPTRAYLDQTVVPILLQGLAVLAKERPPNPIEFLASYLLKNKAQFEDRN
UniProt Q8BX09: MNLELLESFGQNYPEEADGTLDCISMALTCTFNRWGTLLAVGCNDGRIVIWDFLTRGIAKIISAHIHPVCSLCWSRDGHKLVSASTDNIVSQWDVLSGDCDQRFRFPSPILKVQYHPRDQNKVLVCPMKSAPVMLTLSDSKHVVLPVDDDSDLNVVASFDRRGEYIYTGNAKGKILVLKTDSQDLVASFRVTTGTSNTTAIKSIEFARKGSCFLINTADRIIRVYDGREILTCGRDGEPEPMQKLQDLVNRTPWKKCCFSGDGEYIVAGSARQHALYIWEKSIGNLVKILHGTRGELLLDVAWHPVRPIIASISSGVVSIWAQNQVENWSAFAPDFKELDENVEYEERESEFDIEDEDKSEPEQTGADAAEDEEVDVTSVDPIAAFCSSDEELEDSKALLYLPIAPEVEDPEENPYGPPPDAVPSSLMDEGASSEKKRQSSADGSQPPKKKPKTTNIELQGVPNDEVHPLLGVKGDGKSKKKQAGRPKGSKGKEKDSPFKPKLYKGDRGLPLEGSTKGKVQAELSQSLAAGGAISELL
UniProt Q91ZW3: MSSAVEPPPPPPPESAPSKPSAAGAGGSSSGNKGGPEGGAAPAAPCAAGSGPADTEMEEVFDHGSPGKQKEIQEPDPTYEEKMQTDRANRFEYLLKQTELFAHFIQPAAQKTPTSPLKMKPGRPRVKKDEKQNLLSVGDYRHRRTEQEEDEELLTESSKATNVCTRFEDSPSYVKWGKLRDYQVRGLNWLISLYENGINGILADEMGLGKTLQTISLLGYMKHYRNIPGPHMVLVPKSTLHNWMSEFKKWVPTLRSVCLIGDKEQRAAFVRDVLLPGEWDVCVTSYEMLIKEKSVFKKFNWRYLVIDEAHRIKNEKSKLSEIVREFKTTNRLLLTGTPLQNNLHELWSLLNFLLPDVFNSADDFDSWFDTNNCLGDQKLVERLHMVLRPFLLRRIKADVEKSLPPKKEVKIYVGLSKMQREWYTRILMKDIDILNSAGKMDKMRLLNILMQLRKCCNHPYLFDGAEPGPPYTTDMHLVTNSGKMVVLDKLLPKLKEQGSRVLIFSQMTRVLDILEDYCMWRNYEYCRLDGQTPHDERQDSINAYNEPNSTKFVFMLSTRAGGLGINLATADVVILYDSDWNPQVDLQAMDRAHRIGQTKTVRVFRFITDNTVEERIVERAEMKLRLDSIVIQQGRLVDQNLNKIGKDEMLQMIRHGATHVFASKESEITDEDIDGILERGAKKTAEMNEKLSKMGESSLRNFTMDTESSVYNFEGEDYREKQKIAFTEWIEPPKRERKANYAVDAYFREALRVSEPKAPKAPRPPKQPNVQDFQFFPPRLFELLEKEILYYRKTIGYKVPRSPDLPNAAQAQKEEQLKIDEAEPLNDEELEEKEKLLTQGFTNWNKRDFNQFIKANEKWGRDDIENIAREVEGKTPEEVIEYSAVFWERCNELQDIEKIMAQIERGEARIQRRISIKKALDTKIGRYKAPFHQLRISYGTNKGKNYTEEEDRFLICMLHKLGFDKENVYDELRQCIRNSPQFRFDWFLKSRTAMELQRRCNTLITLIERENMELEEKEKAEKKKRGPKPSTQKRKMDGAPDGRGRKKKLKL

Here are results for 12 molecules from paper PMC5018195.

The chains are these.
B1: Pax3/7BP (official name: Paxbp1) (protein, UniProt P58501 1-919)
chain: MFRKARRVNVRKRNDSEEEERERDEEQEPPPLLPPPASGEEPGPGGGDRAPAGESLLGPGPLPPPPSAHHPGLGAEAGGGISGGAEPGNGLKPRKRPRENKEVPRASLLSFQDEEEENEEVFKVKKSSYSKKIVKLLKKEYKEDLEKSKIKTELNTAADSDQPLDKTCHAKDTNPEDGVVISEHGEDEMDMESEKEEEKPKAGGAFSNALSSLNVLRPGEIPDAAFIHAARKKRQLARELGDFTPHDSEPGKGRLVREDENDASDDEDDDEKRRIVFSVKEKSQRQKIAEEIGIEGSDDDALVTGEQDEELSRWEQEQIRKGINIPQVQASQPSEVNVYYQNTYQTMPYGASYGIPYSYTAYGSSDAKSQKTDNTVPFKTPSNEMAPVTIDLVKRQLKDRLDSMKELHKTNQQQHEKHLQSRVDSTRAIERLEGSSGGIGERYKFLQEMRGYVQDLLECFSEKVPLINELESAIHQLYKQRASRLVQRRQDDIKDESSEFSSHSNKALMAPNLDSFGRDRALYQEHAKRRIAEREARRTRRRQAREQTGQMADHLEGLSSDDEETSTDITNFNLEKDRILKESSKVFEDVLESFYSIDCIKAQFEAWRSKYYMSYKDAYIGLCLPKLFNPLIRLQLLTWTPLEAKCRDFETMLWFESLLFYGCEDREQEKDEADVALLPTIVEKVILPKLTVIAETMWDPFSTTQTSRMVGITMKLINGYPSVVNADNKNTQVYLKALLLRMRRTLDDDVFMPLYPKNVLENKNSGPYLFFQRQFWSSVKLLGNFLQWYGIFSNKTLQELSIDGLLNRYILMAFQNSEYGDDSIRKAQNVINCFPKQWFVNLKGERTISQLENFCRYLVHLADTIYRNSIGCSDVEKRNARENIKQIVKLLASVRALDHAISVASDHNVKEVKSLIEGK
B2: Wstf (protein, UniProt Q9Z277 1-1479)
chain: MAPLLGRKPFPLVKPLPGEEPLFTIPHTQEAFRTREEYEARLERYSERIWTCKSTGSSQLTHKEAWEEEQEVAELLKEEFPNWYEKLVLEMVHHNTASLEKLVDSAWLEIMTKYAVGEECDFEVGKEKMLKVKIVKIHPLEKVDEEAVEKKSDGACDSPSSDKENSSQMAQDLQKKETVVKEDEGRRESINDRARRSPRKLPTSLKKGERKWAPPKFLPHKYDVKLQNEDKIISNVPADSLIRTERPPNKEILRYFIRHNALRAGTGENAPWVVEDELVKKYSLPSKFSDFLLDPYKYMTLNPSTKRRNTGSPDRKPSKKPKRDSSSLSSPLNPKLWCHVHLEKSLNGPPLKVKNSKNSKSPEEHLEGVMKIMSPNNNKLHSFHIPKKGPAAKKPGKHSDKPLKAKGRGKGILNGQKSTGNSKSPSKCVKTPKTKMKQMTLLDMAKGTQKMTRTPRSSGGVPRSSGKPHKHLPPAALHLIAYYKENKDKEDKKSALSCVISKTARLLSNEDRARLPEELRALVQKRYELLEHKKRWASMSEEQRKEYLKKKRQELKERLREKAKERREREMLERLEKQKRFEDQELGGRNLPAFRLVDTPEGLPNTLFGDVALVVEFLSCYSGLLLPDAQYPITAVSLMEALSADKGGFLYLNRVLVILLQTLLQDEIAEDYGELGMKLSEIPLTLHSVSELVRLCLRRCDVQEDSEGSETDDNKDSTPFEDNEVQDEFLEKLETSEFFELTSEEKLRILTALCHRILMTYSVQDHMETRQQVSAELWKERLAVLKEENDKKRAEKQKRKEMEARNKENGKEENVLGKVDRKKEIVKIEQQVEVEADDMISAVKSRRLLSMQAKRKREIQERETKVRLEREAEEERMRKHKAAAEKAFQEGIAKAKLVLRRTPIGTDRNHNRYWLFSNEVPGLFIEKGWVHNSIDYRFKHHRKDHSNLPDDDYCPRSKKANLGKNASVNAHHGPALEAVETTVPKQGQNLWFLCDSQKELDELLSCLHPQGIRESQLKERLEKRYQEITHSIYLARKPNLGLKSCDGNQELLNFLRSDLIEVATRLQKGGLGYMEGTSEFEARVISLEKLKDFGECVIALQASVIKKFLQGFMAPKQKKRKLQSEDSTKSEEVDEEKKMVEEAKVASALEKWKTAIREAQTFSRMHVLLGMLDACIKWDMSAENARCKVCRKKGEDDKLILCDECNKAFHLFCLRPALYEVPDGEWQCPACQPPTARRNSRGRNYTEESTSEGSEGDESGEEEEEEEEEEEEEEDYEVAGLRLRPRKTIRGKQSVIPAARPGRPPGKKSHPARRSRPKDDPEVDDLVLQTKRISRRQSLELQKCEDILHKLVKYRFSWPFREPVTRDEAEDYYDVIEHPMDFQTIQNKCSCGNYRSVQEFLTDMKQVFANAELYNCRGSHVLSCMEKTEQCLLALLQKHLPGHPYVRRKRRKFPDRLADDEGDSDSESVGQSRGRRQKK

This assay deals with Pax6 (mouse (endogenous in αTN4)) (UniProt P63015). Description: affinity purification with mass spectrometry; Pax6 antibody on Protein G Dynabeads, αTN4 nuclear extract in BC200 (200 mM KCl), 4 °C, washes BC200 and BC500; SDS-PAGE bands, LC-MS/MS; 99 % protein probability, at least 3 unique peptides.
For Acf1 (from UniProt O88379 1-1555), the binding result is listed as “binds”.

For the molecule Ash2l (from UniProt Q91X20 1-623), the binding entry is “binds”.

Regarding “CBP (from UniProt P45481 1-2441) (enzyme)”, the binding result is reported as “binds”.

As to Dpy30 (from UniProt Q99LT0 1-99), the binding entry is listed as “binds”.

For the molecule “Mll1 (from UniProt P55200 1-3966) (enzyme)”, the binding entry is “binds”.

For “Mll2 (from UniProt O08550 1-2713) (enzyme)”, the binding result was “binds”.

Take PTIP (from UniProt Q6NZQ4 1-1056): the binding entry is “no binding”.

For Psip1 (from UniProt Q99JF8 1-528), the binding result is “no binding”.

Turning to Rbbp5 (from UniProt Q8BX09 1-538), the binding entry was “binds”.

Regarding “Snf2h (Smarca5) (from UniProt Q91ZW3 1-1051) (enzyme)”, the binding entry is recorded as “binds”.

Take B1: the binding entry was “no binding”.

Take B2: the binding entry is listed as “binds”.
